PubChem BioAssay AID1508597 | Cure First – 2020

- Test: 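Genes whose silencing sensitises or protects ovarian cancer cells against rucaparib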 (primary screen)
- Cells: human ovarian carcinoma lines grown from tumours: OCI-P5x (papillary serous) and OCI-C5x (clear cell)
- Reagents: siRNA pool against human genes, 1.25 pmol siRNA per well
- Duration: 72 h or 96 h, depending on the cell culture
- Treatment: rucaparib 20 µM (about IC30) or vehicle, present until read-out
- Rucaparib or vehicle: Rucaparib
- Cell line: OCI-P5x (serous)
- Measurement: 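ATP luminescence measured at 72 or 96 h according to the culture, then normalised and expressed as percent viability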
- Direction: viability, normalised: higher = more viable cells remaining
- Hit rule: 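Active when normalised viability falls below 80 percent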
- Calls: active = viability under 80%; inactive = viability 80% or more
This is an unselected part of the about 2,100 reagents, in one setting of the screen. 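Calls flag viability under 80% in either arm, not effects specific to rucaparib; the reference for percent is not stated.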 Unmarked entries are inactive. No sequences are given here. Not given: the 100% reference.

gene,technical replicate,"viability, normalised (%)"
MAP3K6,1,124
MAP3K6,2,134
MAP3K6,3,119
NCOA1,1,42.9 (active)
NCOA1,2,28.2 (active)
NCOA1,3,33.6 (active)
MAP4K5,1,91.3
MAP4K5,2,94.1
MAP4K5,3,82.7
IRAK1,1,53 (active)
IRAK1,2,59.7 (active)
IRAK1,3,74.4 (active)
RRP8,1,44.3 (active)
RRP8,2,35 (active)
RRP8,3,42.3 (active)
TREX2,1,88
TREX2,2,88.9
TREX2,3,79 (active)
MINK1,1,72.9 (active)
MINK1,2,77.7 (active)
MINK1,3,61.5 (active)
PGK1,1,67.8 (active)
PGK1,2,61.4 (active)
PGK1,3,73.9 (active)
DMPK,1,71.4 (active)
DMPK,2,70.1 (active)
DMPK,3,69.8 (active)
SMYD4,1,35.6 (active)
SMYD4,2,44.7 (active)
SMYD4,3,47 (active)
PARP9,1,43.8 (active)
PARP9,2,44.6 (active)
PARP9,3,42.2 (active)
DDA1,1,76.6 (active)
DDA1,2,53.9 (active)
DDA1,3,66.7 (active)
ALKBH3,1,90.1
ALKBH3,2,81.6
ALKBH3,3,58 (active)
MET,1,128
MET,2,114
MET,3,117
GDPD1,1,58.3 (active)
GDPD1,2,55.8 (active)
GDPD1,3,61.9 (active)
TMPO,1,109
TMPO,2,104
TMPO,3,66.2 (active)
PIP4K2B,1,70.9 (active)
PIP4K2B,2,69.6 (active)
PIP4K2B,3,68 (active)
RAD23A,1,72.1 (active)
RAD23A,2,67.2 (active)
RAD23A,3,43.9 (active)
FMN2,1,56.1 (active)
FMN2,2,68.7 (active)
FMN2,3,60.3 (active)

Already shown: entries from further up.
gene,technical replicate,"viability, normalised (%)"
MAP4K5,1,91.3
MAP4K5,2,94.1
MAP4K5,3,82.7
IRAK1,1,53 (active)
